Experimental data reported in patent EP4818191A1 (PeptiDream Inc., priority 2023, dated 2025).

Tests used:
[1] = general procedure: Fmoc solid-phase peptide synthesis; Sieber amide resin; details: whole synthesis, LC/MS UV 225 nm, thioether ring, sequence written open
[2] = general procedure: Fmoc solid-phase peptide synthesis; Cl-Trt(2-Cl) resin; details: conjugation step, LC/MS UV 225 nm, thioether ring, sequence written open

Substance | final purity (method not given) [1] [%] | final purity (method not given) [2] [%]
ClAc-da-Tbg-3Py6CON-Hgl-Meda-Ahp-pHPeG-S-5Inda-HseMe-dk(PEG8c)-Y-MeC | 96.0 | –
ClAc-da-Tbg-3Py6CON-Hgl-Meda-Ahp-pHPeG-S-5Inda-HseMe-dk-Y-MeCt | – | 99.5
